# From paper PMC9849454, “Kaposi’s sarcoma-associated herpesvirus induces specialised ribosomes to efficiently translate viral lytic mRNAs” (Nature Communications, 2023)
# Chains of the proteins cited; added tags and fusions are not shown.
# UniProt P52294: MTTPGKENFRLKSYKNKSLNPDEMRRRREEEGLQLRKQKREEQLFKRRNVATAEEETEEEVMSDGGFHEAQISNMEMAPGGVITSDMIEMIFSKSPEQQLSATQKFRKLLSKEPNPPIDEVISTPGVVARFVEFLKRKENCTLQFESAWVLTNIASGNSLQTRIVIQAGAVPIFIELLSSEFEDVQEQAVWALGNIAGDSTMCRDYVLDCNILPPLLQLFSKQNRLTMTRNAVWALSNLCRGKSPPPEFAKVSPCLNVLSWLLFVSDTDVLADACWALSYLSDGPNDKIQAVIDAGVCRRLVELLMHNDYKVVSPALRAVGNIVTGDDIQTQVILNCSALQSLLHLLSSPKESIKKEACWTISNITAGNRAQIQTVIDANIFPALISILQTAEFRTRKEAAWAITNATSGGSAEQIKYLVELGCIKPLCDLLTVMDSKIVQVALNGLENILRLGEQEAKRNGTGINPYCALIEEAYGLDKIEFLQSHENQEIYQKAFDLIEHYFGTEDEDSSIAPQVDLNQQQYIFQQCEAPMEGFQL
# UniProt Q2HRC8: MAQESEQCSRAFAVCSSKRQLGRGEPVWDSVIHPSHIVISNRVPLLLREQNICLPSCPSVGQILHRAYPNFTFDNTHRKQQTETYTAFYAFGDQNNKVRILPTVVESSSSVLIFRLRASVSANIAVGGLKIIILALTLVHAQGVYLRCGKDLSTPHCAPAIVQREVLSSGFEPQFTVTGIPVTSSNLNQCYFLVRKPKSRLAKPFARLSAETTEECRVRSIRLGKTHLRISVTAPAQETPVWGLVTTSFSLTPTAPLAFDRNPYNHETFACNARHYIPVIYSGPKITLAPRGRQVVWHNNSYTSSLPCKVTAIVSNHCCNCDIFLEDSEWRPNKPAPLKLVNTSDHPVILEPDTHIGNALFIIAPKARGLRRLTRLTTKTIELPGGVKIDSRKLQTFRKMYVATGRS
# These are yes or no findings as the source states them, for the method shown. Binding seen in cells or lysates may run through a third protein.
# Biological target: GFP-importin α5 (UniProt P52294)
# Assay: co-IP
substance,measurement,value
ORF11-V5 (from UniProt Q2HRC8 1-407),binding,no binding
